Source: article PMC7819943, “Rice protein-binding microarrays: a tool to detect cis-acting elements near promoter regions in rice”
Some of the results follow.

Sequences of proteins named here, by UniProt entry; tags and fusion partners are left off.
UniProt Q0JBA9, entry or part of it: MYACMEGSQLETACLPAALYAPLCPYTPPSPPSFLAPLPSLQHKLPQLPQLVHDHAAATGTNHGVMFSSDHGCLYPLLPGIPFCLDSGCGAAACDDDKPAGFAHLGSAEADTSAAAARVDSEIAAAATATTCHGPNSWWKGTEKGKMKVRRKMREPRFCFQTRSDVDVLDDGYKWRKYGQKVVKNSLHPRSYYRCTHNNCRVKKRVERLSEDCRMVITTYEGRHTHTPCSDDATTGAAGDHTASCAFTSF

Each sequence was assayed against OsWRKY34 (Oryza sativa, UniProt Q0JBA9 1-250) (assay: protein-binding microarray (RPBM); PBS, 2% BSA, 51.3 ng/ul salmon testes DNA, 50 uM zinc acetate, 200 nM TF, 25 C, 1 h; high values mean tight binding). Details: protein: recombinant; tags: N-terminal polyhistidine and DsRed monomer fusion (pET32a); label: CyDye5-dUTP incorporated in the synthesized complementary strand; 3' TTTTT single-stranded linker to array surface; dsDNA, one strand shown.
Summary of the method: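 For the binding signal, per-feature fluorescence intensity was read in arbitrary units on an Axon 4000B scanner. Before scanning, a 2% BSA-blocked custom Agilent array made double-stranded with Cy5-dUTP was washed after 1 h at 25 °C with 200 nM protein and 50 µM zinc acetate. The proteins were Ni–NTA-purified transcription factors with N-terminal polyhistidine and DsRed fusions, expressed in E. coli BL21-CodonPlus.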
For “TAGCTATATATGCTCCTTTTCTAGCTGAAAATTGGTGGGGCGGAGTCACCTAGTGCAG”, the binding signal was 9610 fluorescence intensity (a.u.). With “AAGAGGAGAATTTGTGGGTCTTTTGGATGGTTTTGTGAACCGGAGTCACCTAGTGCAG” the binding signal was 8200 fluorescence intensity (a.u.). For “GGACTAATGATGTTTCTTCTGGTGCTAATACCAATCCATCCGGAGTCACCTAGTGCAG”, the binding signal was 10800 fluorescence intensity (a.u.). “GCTTTTTTCTTTTTTGGTTTCATCTCTCTCCATAGACCATCGGAGTCACCTAGTGCAG” was tested, and the binding signal was 11800 fluorescence intensity (a.u.). For “ATAATTCTCCTTGTTTAAGTCCATACAATGTTTCTACGACCGGAGTCACCTAGTGCAG”, the binding signal was 9490 fluorescence intensity (a.u.). “CCTGTAATACTTTTGTTAATTCGATCCTACTACATCTTTACGGAGTCACCTAGTGCAG” was tested, and the binding signal was 10400 fluorescence intensity (a.u.). With “GCCGTGATCGCGTTGCCGATCGCGAGCGGCAATCTTTGACCGGAGTCACCTAGTGCAG” the binding signal was 8260 fluorescence intensity (a.u.). For “TTATGGTTTTCACATGTTAGGGTTCTAGTGAGCTTTATCTCGGAGTCACCTAGTGCAG”, the binding signal was 9280 fluorescence intensity (a.u.). With “GCGCAACTATAATAGTACTATCTCATATGTTGTTTTTTTTCGGAGTCACCTAGTGCAG” the binding signal was 9230 fluorescence intensity (a.u.). With “GTCCACGTCCCTCGCCGCCGCCACGCTCTCTCGTCTGCCTCGGAGTCACCTAGTGCAG” the binding signal was 12200 fluorescence intensity (a.u.). “CTCACTGAATGTTATACTGCATTACTGGTCTTGTTAAATACGGAGTCACCTAGTGCAG” was tested, and the binding signal was 8410 fluorescence intensity (a.u.). For “GCTTAGCCACACACAGCCTGTCGACCTTTTCAGCATTACTCGGAGTCACCTAGTGCAG”, the binding signal was 8570 fluorescence intensity (a.u.). “TGATCATTGCCGGTCGGCGCCCGTGGTTTTTTTCCGCAAGCGGAGTCACCTAGTGCAG” was tested, and the binding signal was 8680 fluorescence intensity (a.u.). With “AAATCACTCGGGGCTGTGGATTATGTGAGGGGAGAATGATCGGAGTCACCTAGTGCAG” the binding signal was 9540 fluorescence intensity (a.u.). With “AAGTTATAAGATGTTTTGACTTTGGTCAAAGTCAAACTGCCGGAGTCACCTAGTGCAG” the binding signal was 14600 fluorescence intensity (a.u.). In the case of “CTCCCAGCCATTTGTCACCAACCGCAGCGCATCATATCATCGGAGTCACCTAGTGCAG”, the binding signal is reported as 8480 fluorescence intensity (a.u.). In the case of “CATATTTTAATTTTAATGTATGACACCGTTGACTTTTCGACGGAGTCACCTAGTGCAG”, the binding signal is reported as 16000 fluorescence intensity (a.u.). In the case of “AGCTCCAATACATCACGCTGCGTTTGCTCCATATCCCATTCGGAGTCACCTAGTGCAG”, the binding signal is reported as 8950 fluorescence intensity (a.u.). With “TATTTTTGTTCTTTCGCAAATACAGTGCATTTTCCTGTTGCGGAGTCACCTAGTGCAG” the binding signal was 9470 fluorescence intensity (a.u.). With “ACCACCGTAAATTTGGTTTTTGATAGAATATATTCTTACACGGAGTCACCTAGTGCAG” the binding signal was 8340 fluorescence intensity (a.u.). In the case of “CTTTGCAACATTTTACGTCTGATCTGTAGTCGCCACCGTACGGAGTCACCTAGTGCAG”, the binding signal is reported as 10600 fluorescence intensity (a.u.). For “AGCCAGCCCAAAAGCCACGCCGTCCACTCCATCTCCGCCTCGGAGTCACCTAGTGCAG”, the binding signal was 8440 fluorescence intensity (a.u.). With “ACTAATTTGATATGAAAGTTGGACTTCTCATTGCAGCTCACGGAGTCACCTAGTGCAG” the binding signal was 9040 fluorescence intensity (a.u.). In the case of “GCGGAGCGTTGGGTTGGGGATCAGGTCGTCGACGCACGCCCGGAGTCACCTAGTGCAG”, the binding signal is reported as 10200 fluorescence intensity (a.u.). In the case of “ACAGCGCCATTTACTTGCCATCCAATGGATCAACTCATTCCGGAGTCACCTAGTGCAG”, the binding signal is reported as 9080 fluorescence intensity (a.u.). With “TCTTCAATAGTACACTAACTACAATTGCATCACTACCAGTCGGAGTCACCTAGTGCAG” the binding signal was 8620 fluorescence intensity (a.u.). In the case of “TCCAAACTATAGTTCCGTGCTTCCGTTTCCTAGTGGTTTTCGGAGTCACCTAGTGCAG”, the binding signal is reported as 8190 fluorescence intensity (a.u.). In the case of “CTGGGTCTGTTCTGTCTGCTTTCACAGGGAGATTTGTTGACGGAGTCACCTAGTGCAG”, the binding signal is reported as 10100 fluorescence intensity (a.u.). In the case of “GTGATATGGCACTCAAATCGTACATTTTTCCTATCATTGTCGGAGTCACCTAGTGCAG”, the binding signal is reported as 8550 fluorescence intensity (a.u.). “ATTATCCAAAGTAATTTAAGCATAACTTTTTGTTTTTTATCGGAGTCACCTAGTGCAG” was tested, and the binding signal was 8120 fluorescence intensity (a.u.). In the case of “GCGGCGAAGACGAGGGCGGGGAGGCAGCGGCGAAGAGGTCCGGAGTCACCTAGTGCAG”, the binding signal is reported as 9170 fluorescence intensity (a.u.). “AGGGTTGAGATTTAGGGTGTGTTTGGTTCACGGTCATGTACGGAGTCACCTAGTGCAG” was tested, and the binding signal was 8460 fluorescence intensity (a.u.). In the case of “ATCATTTTCCTATCCCATTAGTCAAACACTGCCTAGCTACCGGAGTCACCTAGTGCAG”, the binding signal is reported as 9960 fluorescence intensity (a.u.). “ATCAATCTGGACCGTATATTTTTGATCGGACGGTTCAAACCGGAGTCACCTAGTGCAG” was tested, and the binding signal was 8670 fluorescence intensity (a.u.). With “AATCCTATATTTTTTCTATTCCTCCGTTTTTTTCAATCTTCGGAGTCACCTAGTGCAG” the binding signal was 8700 fluorescence intensity (a.u.). “CCACATTTTGCGCAAAAATGCTCATATGCGTCATGCTGACCGGAGTCACCTAGTGCAG” was tested, and the binding signal was 8150 fluorescence intensity (a.u.). For “CTTTCCTCCTCCGCAAGGTCGGTTTCCTTTTGTCCTTTCACGGAGTCACCTAGTGCAG”, the binding signal was 10600 fluorescence intensity (a.u.). In the case of “CGGACGGCCACCCGTCCCGCAACCCCGCCCCGCGTCGCCTCGGAGTCACCTAGTGCAG”, the binding signal is reported as 8700 fluorescence intensity (a.u.). In the case of “CATCGAGCTCATCCTATTGACTAGTCATAATGGGTTGTAACGGAGTCACCTAGTGCAG”, the binding signal is reported as 8810 fluorescence intensity (a.u.). With “CAGTATTGTTCATCTAGATTTCATTTTTCTTCTTGAATTGCGGAGTCACCTAGTGCAG” the binding signal was 9390 fluorescence intensity (a.u.). “ATATATATATATATATATATATATATTAAATTTGTTTGGTCGGAGTCACCTAGTGCAG” was tested, and the binding signal was 10400 fluorescence intensity (a.u.). In the case of “CGCAAACGAGATCCGGATCTCCTGCCTCTATCAGTATGACCGGAGTCACCTAGTGCAG”, the binding signal is reported as 8590 fluorescence intensity (a.u.).
